These are yes or no findings as the source states them, for the method shown.

The experiment deals with T1, hTRβ-LBD (ligand binding domain of thyroid hormone receptor β) (human) (UniProt P10828).
T1 sequence (looked up): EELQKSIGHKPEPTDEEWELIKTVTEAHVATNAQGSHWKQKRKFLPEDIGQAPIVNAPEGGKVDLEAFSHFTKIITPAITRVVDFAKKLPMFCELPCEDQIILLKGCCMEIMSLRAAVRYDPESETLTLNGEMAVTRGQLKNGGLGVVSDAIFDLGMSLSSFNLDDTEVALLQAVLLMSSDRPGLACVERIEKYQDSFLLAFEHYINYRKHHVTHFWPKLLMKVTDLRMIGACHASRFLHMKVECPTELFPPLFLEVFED
As to the kind of experiment: fluorescence polarization, fluorescein-labelled peptide 10 nM, hTRβ-LBD titrated, T3 present.

B1: SRC1-7 coregulator peptide (peptide)
peptide: CQAQQKSLLQQLLTE
modifications: 5-iodoacetamidofluorescein coupled to the amino terminal cysteine
As for B1, the binding entry was “no binding (tested: assay limits; value not printed)”.

Values taken from patent US20040005636A1, “Method for obtaining the binding affinities of a peptide library to a protein” (priority 2002, published 2004).
